From US20230093155A1
No constants are given. Whether binding was seen depends on the method and setting. In cells and extracts the contact can be indirect. Some results given as binding are weak or reduced against the parent protein; the word gives no strength.

The chains behind the UniProt entries cited, without tags or fusion partners. Where a name states a change or a piece, a line headed by the entry shows the natural chain unless it says otherwise.
UniProt Q13261: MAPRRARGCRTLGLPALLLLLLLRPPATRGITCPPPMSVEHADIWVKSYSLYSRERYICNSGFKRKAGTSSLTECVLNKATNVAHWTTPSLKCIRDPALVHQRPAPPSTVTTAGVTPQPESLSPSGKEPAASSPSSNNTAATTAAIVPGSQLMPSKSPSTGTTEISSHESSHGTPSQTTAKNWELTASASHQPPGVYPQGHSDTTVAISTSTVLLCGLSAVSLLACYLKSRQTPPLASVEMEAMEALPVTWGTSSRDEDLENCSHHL

Biological target: Fc-fused IL-15 (S58D) of P-0315 after MMP-2 cleavage
Test: co-purification on Protein A after MMP-2 digestion of P-0315, SDS-PAGE

binding: binds
Substance: IL-15RαSushi+ domain released from P-0315 by MMP-2 cleavage (from UniProt Q13261 31-107) (receptor)
